Experimental data: the supplement of paper PMC10849652
This is one part of the list.

Amino acid sequences for entries named in this document (tags omitted). A change or cut given only in a name is not applied to a line headed by its entry.
UniProt Q9Y3Q8: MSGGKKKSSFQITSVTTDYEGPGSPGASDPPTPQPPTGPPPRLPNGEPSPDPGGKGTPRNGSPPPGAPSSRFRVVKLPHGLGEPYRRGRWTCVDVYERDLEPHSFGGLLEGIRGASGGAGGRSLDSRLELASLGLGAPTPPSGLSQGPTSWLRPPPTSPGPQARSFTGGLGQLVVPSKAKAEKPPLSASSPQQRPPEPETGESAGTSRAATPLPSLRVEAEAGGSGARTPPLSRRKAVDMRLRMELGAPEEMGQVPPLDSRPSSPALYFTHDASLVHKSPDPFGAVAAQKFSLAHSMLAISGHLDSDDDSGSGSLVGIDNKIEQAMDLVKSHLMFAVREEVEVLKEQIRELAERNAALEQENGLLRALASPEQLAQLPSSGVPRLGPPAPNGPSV
UniProt Q9BRZ2: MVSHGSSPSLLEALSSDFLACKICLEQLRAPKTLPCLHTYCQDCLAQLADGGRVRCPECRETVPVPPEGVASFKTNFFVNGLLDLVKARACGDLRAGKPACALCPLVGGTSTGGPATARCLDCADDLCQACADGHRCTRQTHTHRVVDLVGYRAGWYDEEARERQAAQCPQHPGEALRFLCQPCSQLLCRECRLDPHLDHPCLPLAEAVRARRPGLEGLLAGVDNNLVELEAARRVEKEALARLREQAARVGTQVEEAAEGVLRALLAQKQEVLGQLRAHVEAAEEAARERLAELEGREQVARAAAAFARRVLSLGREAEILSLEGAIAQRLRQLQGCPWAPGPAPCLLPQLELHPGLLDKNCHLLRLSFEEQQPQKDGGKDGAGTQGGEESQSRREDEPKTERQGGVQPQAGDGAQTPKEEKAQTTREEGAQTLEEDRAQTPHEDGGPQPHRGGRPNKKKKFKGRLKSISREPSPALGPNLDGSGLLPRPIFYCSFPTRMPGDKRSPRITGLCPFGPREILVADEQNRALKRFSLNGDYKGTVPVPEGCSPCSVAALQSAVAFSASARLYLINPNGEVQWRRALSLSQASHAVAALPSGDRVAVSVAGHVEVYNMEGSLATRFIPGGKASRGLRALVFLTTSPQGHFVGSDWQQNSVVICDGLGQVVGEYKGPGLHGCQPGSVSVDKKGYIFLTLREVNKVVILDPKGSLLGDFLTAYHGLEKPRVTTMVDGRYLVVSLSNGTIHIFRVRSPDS
UniProt Q8N0Z6: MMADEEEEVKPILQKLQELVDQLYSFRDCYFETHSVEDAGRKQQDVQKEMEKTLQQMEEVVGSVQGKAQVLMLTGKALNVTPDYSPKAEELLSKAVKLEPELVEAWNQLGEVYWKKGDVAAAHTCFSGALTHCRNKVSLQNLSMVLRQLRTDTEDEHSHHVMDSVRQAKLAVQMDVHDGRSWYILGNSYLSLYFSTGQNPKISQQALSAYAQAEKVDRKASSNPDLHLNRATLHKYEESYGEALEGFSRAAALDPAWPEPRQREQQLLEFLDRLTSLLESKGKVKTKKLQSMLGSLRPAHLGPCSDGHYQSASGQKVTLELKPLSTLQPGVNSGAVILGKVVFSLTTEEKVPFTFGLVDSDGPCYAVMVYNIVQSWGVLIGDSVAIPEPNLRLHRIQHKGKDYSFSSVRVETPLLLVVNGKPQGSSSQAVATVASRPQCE
UniProt Q13263: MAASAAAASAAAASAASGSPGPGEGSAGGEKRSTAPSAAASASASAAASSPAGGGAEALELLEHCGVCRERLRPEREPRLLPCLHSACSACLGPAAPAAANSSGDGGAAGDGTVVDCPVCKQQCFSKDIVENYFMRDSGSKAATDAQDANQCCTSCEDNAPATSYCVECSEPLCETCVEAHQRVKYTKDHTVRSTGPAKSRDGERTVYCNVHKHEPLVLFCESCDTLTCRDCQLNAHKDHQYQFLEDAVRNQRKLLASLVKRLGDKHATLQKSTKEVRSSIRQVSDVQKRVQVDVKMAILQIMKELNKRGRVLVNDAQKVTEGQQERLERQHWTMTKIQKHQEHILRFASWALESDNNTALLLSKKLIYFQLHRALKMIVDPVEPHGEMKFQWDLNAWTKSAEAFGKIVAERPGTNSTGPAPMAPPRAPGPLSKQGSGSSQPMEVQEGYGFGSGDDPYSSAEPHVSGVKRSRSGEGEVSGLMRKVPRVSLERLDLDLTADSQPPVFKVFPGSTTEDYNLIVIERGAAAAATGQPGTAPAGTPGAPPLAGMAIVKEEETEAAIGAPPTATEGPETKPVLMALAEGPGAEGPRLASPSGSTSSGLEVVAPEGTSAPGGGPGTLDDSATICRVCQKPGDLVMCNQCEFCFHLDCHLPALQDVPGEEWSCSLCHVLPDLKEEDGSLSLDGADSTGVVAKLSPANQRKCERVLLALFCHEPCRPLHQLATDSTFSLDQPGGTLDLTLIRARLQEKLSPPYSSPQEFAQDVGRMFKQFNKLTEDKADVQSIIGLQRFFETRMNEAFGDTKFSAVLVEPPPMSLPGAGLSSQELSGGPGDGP
UniProt Q96Q05, whole entry, looked up: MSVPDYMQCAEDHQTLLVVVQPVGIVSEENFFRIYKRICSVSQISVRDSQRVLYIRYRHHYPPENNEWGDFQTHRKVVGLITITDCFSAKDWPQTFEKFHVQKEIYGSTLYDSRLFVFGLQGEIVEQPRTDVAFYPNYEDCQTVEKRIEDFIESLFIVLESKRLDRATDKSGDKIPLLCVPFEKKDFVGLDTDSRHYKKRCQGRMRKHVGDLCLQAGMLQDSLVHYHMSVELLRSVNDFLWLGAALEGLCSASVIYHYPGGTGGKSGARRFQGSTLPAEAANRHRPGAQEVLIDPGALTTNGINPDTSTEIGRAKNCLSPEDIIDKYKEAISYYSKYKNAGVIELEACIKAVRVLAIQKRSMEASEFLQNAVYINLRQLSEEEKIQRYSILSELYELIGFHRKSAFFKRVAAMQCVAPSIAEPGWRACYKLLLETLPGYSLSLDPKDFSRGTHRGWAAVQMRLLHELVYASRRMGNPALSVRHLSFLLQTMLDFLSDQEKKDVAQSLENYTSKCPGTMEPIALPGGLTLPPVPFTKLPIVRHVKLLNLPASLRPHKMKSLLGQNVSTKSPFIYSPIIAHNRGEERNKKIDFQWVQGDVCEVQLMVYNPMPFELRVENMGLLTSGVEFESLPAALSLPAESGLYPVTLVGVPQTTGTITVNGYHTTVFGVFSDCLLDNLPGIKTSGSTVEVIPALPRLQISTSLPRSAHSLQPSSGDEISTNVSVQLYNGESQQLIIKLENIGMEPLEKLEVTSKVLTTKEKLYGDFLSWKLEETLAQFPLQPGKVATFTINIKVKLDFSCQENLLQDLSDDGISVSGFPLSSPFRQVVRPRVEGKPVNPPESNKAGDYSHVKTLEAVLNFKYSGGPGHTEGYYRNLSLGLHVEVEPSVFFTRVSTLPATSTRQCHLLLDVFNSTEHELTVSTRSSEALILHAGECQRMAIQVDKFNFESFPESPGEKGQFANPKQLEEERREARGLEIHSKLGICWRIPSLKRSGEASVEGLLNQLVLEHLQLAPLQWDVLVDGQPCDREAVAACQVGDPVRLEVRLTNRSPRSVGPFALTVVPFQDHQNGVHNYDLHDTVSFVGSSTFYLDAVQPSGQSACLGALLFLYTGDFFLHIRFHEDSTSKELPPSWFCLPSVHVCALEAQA
UniProt Q969E8: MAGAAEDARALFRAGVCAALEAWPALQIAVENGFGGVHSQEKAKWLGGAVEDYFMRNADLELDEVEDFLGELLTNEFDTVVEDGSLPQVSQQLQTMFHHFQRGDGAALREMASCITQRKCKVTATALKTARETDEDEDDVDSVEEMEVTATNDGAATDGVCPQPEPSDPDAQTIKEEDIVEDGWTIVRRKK
UniProt Q7Z2T5: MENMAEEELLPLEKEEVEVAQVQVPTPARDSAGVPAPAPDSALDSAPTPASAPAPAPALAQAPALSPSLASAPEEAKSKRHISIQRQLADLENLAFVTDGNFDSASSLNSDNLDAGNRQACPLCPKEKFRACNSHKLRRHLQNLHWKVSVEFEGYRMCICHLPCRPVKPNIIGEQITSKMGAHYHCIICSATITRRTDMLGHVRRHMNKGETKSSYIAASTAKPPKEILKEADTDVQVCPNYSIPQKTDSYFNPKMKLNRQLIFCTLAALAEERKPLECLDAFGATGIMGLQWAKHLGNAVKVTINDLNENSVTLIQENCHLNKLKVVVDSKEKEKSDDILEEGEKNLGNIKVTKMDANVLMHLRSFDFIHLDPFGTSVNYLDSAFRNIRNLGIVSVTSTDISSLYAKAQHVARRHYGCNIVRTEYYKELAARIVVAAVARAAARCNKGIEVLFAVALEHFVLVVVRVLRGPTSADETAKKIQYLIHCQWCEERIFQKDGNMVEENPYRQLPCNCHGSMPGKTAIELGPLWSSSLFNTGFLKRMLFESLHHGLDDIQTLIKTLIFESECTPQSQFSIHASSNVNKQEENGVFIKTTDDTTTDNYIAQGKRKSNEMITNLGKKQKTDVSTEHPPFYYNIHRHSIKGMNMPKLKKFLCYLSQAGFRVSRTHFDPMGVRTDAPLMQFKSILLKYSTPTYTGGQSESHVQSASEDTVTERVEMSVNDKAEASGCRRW
UniProt Q8IUR0, whole entry, looked up: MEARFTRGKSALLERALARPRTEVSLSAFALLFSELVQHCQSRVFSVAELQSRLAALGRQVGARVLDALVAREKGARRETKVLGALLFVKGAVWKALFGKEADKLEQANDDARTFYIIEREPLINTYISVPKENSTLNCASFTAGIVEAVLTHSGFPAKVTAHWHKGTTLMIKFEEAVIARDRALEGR

Experiments:
Experiment in all cases: log2 fold change, soluble protein after heating vs DMSO (PISA); higher = thermal stabilisation; K562 lysate, 10 uM; active = over 0.2 and 3.5 SD of the protein, either way, in both replicates (recomputed)
[1] = compound: C1=CC=C(C=C1)[C@H](COC2=CC3=C(C=C2)NC(=O)N3)NC(=O)C4=CC=CN(C4=O)CC5=CC(=C(C=C5)F)F
Summary of the method: (§1)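 Soluble protein was defined as the supernatant remaining after 21,000xg for 90 min, following pooling of heated aliquots and adjustment to 0.5% NP-40 at 4°C. Before that, crude K562 extract at 1 mg/mL protein in PBS pH 7.4 with 1 mM MgCl2 was treated with 10 μM compound for 30 min and heated for 3 min across 48°C-58°C. Quantification used TMTpro 16plex LC-MS/MS with channel sums equalised, and values are log-two fold changes in thermal stability relative to solvent controls from duplicates.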

[2] = compound: CC1=C(SC2=C1C(=N[C@H](C3=NN=C(N32)C)CC(=O)N)C4=CC=C(C=C4)Cl)C
Summary of the method: as §1

[3] = compound: CC1=C2C(=CC=C1)N=C(N(C2=O)C3=CC=CC=C3C)CN4C=NC5=C(N=CN=C54)N
Summary of the method: as §1

[4] = compound: Cc1sc2c(c1C)C(c1ccc(Cl)cc1)=N[C@@H](CC(=O)OC(C)(C)C)c1nnc(C)n1-2
Summary of the method: as §1

[5] = compound: c1ccc([C@@H]2C[C@H]2NC2CCNCC2)cc1
Summary of the method: as §1

Measured: log2 fold change

TSC22D4 (UniProt Q9Y3Q8)
inactive: [1] 0.013 | [2] -0.009 | [3] 0.037 | [4] -0.01 | [5] -0.033

TRIM56 (UniProt Q9BRZ2)
inactive: [1] -0.057 | [2] -0.009 | [3] 0.076 | [4] 0.003 | [5] 0.099

TTC5 (UniProt Q8N0Z6)
inactive: [1] -0.022 | [2] 0.009 | [3] 0.035 | [4] 0.039 | [5] 0.002

TRIM28 (UniProt Q13263)
inactive: [1] 0.008 | [2] -0.001 | [3] 0.003 | [4] 0.011 | [5] 0.034

TRAPPC9 isoform 2 (UniProt Q96Q05)
inactive: [1] 0.001 | [2] 0.05 | [3] 0 | [4] 0.055 | [5] -0.042

TSR2 (UniProt Q969E8)
inactive: [1] -0.008 | [2] -0.02 | [3] 0.019 | [4] 0.03 | [5] 0.038

TRMT1L (UniProt Q7Z2T5)
inactive: [1] 0.033 | [2] -0.024 | [3] 0.09 | [4] -0.025 | [5] -0.029

TRIM33 (UniProt H0Y612)
inactive: [1] -0.042 | [2] 0.008 | [3] 0.05 | [4] 0.021 | [5] 0.098

TRAPPC5 (UniProt Q8IUR0)
inactive: [1] -0.011 | [2] 0.048 | [3] 0.03 | [4] 0.046 | [5] 0.059
